Data source: PubChem BioAssay AID1259308 (NCATS, 2017)

Screen: 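Genes whose loss raises luciferase production in HEK293 cells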 (primary screen)
Cells: human HEK293 embryonic kidney cells stably expressing firefly luciferase (HEK-CMV-Luc2-Hygro)
Reagents: single siRNA against human genes, 0.8 pmol siRNA per well
Duration: 72 h
Measurement: 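Luciferase light (ONE-Glo) measured on one replicate plate set and viability (CellTiter-Glo) on the other, scaled to a negative control siRNA, with robust z-scores and luciferase per cell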
Direction: total luciferase, z-score and total luciferase, % of control: higher = more reporter protein produced; luciferase per cell, z-score: higher = more reporter output per viable cell; viable cells, % of control: higher = more viable cells
Active means: 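An siRNA counts as active if its total luciferase robust z-score exceeds 3; genes with two or more such siRNAs out of three were retested with fresh siRNAs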
Meaning of the calls: active = raised luciferase; inactive = no rise
The deposit covers about 59,000 reagents; below is an unselected part. About 1,510 of all reagents (2.6%) were called active. 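Calls use total luciferase alone and ignore viability, so some active siRNAs may act by altering cell number.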 Reagents against one gene are numbered here.

Gene | reagent | total luciferase, z-score | total luciferase, % of control | luciferase per cell, z-score | viable cells, % of control | activity call
ICAM5 | 1 | 0.0637 | 83.2 | 0.248 | 87 | inactive
ICAM5 | 2 | 2.15 | 125 | 1.81 | 86.6 | inactive
ICAM5 | 3 | 2.41 | 130 | 2.29 | 79.3 | inactive
PPIL4 | 1 | 1.89 | 119 | 1.92 | 80.4 | inactive
PPIL4 | 2 | 3.54 | 152 | 2.12 | 97.4 | active
PPIL4 | 3 | 0.178 | 85.4 | -0.377 | 105 | inactive
CCER2 | 1 | -0.481 | 72.3 | 0.376 | 73.2 | inactive
CCER2 | 2 | 1.08 | 103 | 0.405 | 104 | inactive
CCER2 | 3 | 1.13 | 104 | 1.94 | 69.9 | inactive
OR6C2 | 1 | -1.82 | 45.7 | -2.07 | 88.2 | inactive
OR6C2 | 2 | 2.77 | 137 | 2.36 | 82.2 | inactive
OR6C2 | 3 | 1.56 | 113 | 2.07 | 73.2 | inactive
CBX3 | 1 | -0.835 | 65.3 | -1.33 | 103 | inactive
CBX3 | 2 | 0.488 | 91.6 | 0.272 | 95.3 | inactive
CBX3 | 3 | 2.42 | 130 | 1.43 | 99.6 | inactive
SYS1 | 1 | -0.254 | 76.8 | -1 | 112 | inactive
SYS1 | 2 | -0.0699 | 80.5 | -0.743 | 109 | inactive
SYS1 | 3 | 1.11 | 104 | 1.22 | 84.1 | inactive
CYP2J2 | 1 | -0.521 | 71.5 | -0.509 | 91.4 | inactive
CYP2J2 | 2 | -0.988 | 62.2 | -1.81 | 112 | inactive
CYP2J2 | 3 | -1.59 | 50.3 | -1.5 | 83.4 | inactive
CDKL4 | 1 | 0.0724 | 83.3 | 0.452 | 82.7 | inactive
CDKL4 | 2 | 0.395 | 89.7 | -0.391 | 111 | inactive
CDKL4 | 3 | 0.532 | 92.5 | -0.235 | 110 | inactive
SEH1L | 1 | -0.667 | 68.6 | -0.664 | 91.3 | inactive
SEH1L | 2 | -1.11 | 59.8 | -0.87 | 84.1 | inactive
SEH1L | 3 | -1.49 | 52.3 | -1.33 | 83 | inactive
TOMM22P3 | 1 | -0.346 | 75 | -0.69 | 101 | inactive
TOMM22P3 | 2 | 0.524 | 92.3 | 0.526 | 89.8 | inactive
TOMM22P3 | 3 | 1.96 | 121 | 1.64 | 87.7 | inactive
HSPA13 | 1 | -1.23 | 57.4 | -0.0655 | 65.2 | inactive
HSPA13 | 2 | 0.213 | 86.1 | 0.442 | 85.7 | inactive
HSPA13 | 3 | 0.437 | 90.6 | 0.632 | 85.7 | inactive

Individual results from the list:
For “luciferase per cell, z-score”, SYS1 #1 shows -1
SYS1 #3, luciferase per cell, z-score = 1.22
Under “total luciferase, % of control”, ICAM5 #1 has 83.2

The results go on:
Gene | reagent | total luciferase, z-score | total luciferase, % of control | luciferase per cell, z-score | viable cells, % of control | activity call
LMNTD1 | 1 | -0.0413 | 81.1 | 0.0287 | 89.9 | inactive
LMNTD1 | 2 | 0.542 | 92.7 | 0.818 | 83.5 | inactive
LMNTD1 | 3 | -0.506 | 71.8 | -1.04 | 106 | inactive
STX18 | 1 | -0.421 | 73.5 | -0.288 | 88.6 | inactive
STX18 | 2 | -0.322 | 75.5 | -0.494 | 96.1 | inactive
STX18 | 3 | 0.635 | 94.5 | 0.313 | 97.3 | inactive
ZNF57 | 1 | 0.432 | 90.5 | 0.66 | 85 | inactive
ZNF57 | 2 | -0.711 | 67.7 | -0.82 | 94 | inactive
ZNF57 | 3 | -0.225 | 77.4 | 0.0659 | 85 | inactive
TG | 1 | -0.807 | 65.8 | -0.532 | 84.6 | inactive
TG | 2 | 0.264 | 87.1 | -0.451 | 110 | inactive
TG | 3 | 0.746 | 96.7 | 0.303 | 99.8 | inactive
AKAP5 | 1 | 0.957 | 101 | 0.897 | 89.1 | inactive
AKAP5 | 2 | 1.2 | 106 | 0.823 | 95.2 | inactive
AKAP5 | 3 | -0.0162 | 81.6 | -0.771 | 112 | inactive
SPC25 | 1 | -1.19 | 58.2 | 2.68 | 32.1 | inactive
SPC25 | 2 | -0.241 | 77.1 | -0.373 | 95 | inactive
SPC25 | 3 | 0.304 | 87.9 | 0.105 | 95.6 | inactive
BMX | 1 | -0.991 | 62.2 | -1.49 | 103 | inactive
BMX | 2 | -0.0852 | 80.2 | 0.257 | 83.7 | inactive
BMX | 3 | 2.35 | 129 | 2.99 | 65.3 | inactive
TERB2 | 1 | 2.56 | 133 | 2.41 | 78.7 | inactive
TERB2 | 2 | -0.403 | 73.9 | 0.428 | 73.7 | inactive
TERB2 | 3 | 0.878 | 99.4 | 0.404 | 99.8 | inactive
